Test results published in the supplement of paper PMC6411743.
± gives the standard deviation of the averaged measurements. Some of the results follow.

Chains of the proteins cited; added tags and fusions are not shown. Lines headed by an entry give the natural chain unless they say otherwise; changes in a name come on top.
UniProt O14656: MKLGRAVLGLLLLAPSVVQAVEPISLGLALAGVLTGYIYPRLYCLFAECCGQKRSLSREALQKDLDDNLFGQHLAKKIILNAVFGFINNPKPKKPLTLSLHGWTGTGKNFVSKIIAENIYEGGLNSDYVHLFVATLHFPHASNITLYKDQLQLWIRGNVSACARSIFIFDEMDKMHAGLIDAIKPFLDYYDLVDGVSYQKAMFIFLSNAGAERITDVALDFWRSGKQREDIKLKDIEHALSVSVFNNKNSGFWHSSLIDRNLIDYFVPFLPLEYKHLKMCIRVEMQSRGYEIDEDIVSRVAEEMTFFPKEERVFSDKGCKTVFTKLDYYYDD
UniProt O43567: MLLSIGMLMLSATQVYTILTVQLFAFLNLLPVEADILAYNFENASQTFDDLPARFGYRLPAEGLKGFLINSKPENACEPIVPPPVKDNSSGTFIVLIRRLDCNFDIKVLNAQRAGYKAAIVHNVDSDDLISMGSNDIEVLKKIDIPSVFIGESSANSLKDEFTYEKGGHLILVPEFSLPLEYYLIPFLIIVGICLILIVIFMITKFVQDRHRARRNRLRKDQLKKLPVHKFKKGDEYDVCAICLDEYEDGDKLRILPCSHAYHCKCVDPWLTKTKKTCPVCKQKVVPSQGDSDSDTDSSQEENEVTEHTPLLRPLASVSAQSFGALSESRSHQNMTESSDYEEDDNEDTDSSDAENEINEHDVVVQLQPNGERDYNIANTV
UniProt Q5UCC4: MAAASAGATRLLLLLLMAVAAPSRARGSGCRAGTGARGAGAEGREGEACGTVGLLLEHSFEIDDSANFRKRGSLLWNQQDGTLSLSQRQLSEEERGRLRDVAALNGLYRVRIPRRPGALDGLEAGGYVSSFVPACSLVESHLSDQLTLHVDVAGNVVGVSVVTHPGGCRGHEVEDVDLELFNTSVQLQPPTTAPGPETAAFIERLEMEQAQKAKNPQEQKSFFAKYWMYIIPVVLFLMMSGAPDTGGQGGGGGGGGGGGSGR
UniProt Q9UI14, whole entry: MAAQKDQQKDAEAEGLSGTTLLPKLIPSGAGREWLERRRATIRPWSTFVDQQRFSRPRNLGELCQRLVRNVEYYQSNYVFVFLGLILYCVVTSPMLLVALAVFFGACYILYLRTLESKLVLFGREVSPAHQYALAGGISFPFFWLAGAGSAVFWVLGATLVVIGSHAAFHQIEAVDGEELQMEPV
UniProt O43242, whole entry: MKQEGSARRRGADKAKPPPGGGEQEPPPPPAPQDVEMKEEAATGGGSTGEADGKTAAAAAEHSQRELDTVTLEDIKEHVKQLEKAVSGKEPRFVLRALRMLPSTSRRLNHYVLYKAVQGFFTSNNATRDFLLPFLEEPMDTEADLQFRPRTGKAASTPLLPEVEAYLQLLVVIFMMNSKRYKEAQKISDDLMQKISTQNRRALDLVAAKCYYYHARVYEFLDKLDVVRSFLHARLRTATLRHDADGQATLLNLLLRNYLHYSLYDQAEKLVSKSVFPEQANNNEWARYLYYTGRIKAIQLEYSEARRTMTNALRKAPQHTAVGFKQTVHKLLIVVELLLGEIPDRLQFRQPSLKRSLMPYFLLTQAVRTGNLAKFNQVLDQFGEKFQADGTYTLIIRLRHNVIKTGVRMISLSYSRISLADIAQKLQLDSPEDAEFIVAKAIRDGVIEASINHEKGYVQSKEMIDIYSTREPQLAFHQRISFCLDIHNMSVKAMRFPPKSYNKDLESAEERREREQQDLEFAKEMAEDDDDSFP
UniProt O60476: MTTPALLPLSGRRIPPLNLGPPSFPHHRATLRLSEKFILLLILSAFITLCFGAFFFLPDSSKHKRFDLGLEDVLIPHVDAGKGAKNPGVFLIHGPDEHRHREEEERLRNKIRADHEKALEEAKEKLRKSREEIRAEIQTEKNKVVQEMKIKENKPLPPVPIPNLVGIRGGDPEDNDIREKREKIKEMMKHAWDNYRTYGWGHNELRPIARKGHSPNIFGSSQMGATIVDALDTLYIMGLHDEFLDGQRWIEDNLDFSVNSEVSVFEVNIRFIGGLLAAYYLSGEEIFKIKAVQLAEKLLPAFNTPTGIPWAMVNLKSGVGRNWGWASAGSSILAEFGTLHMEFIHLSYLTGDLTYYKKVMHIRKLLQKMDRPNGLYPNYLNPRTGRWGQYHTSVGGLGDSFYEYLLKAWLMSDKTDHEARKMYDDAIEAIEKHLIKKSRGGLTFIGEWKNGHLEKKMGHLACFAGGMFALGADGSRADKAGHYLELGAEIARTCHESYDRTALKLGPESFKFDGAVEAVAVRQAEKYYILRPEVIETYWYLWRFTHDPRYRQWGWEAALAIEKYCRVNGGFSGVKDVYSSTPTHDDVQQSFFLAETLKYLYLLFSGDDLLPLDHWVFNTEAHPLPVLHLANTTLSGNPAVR
UniProt O43865, whole entry: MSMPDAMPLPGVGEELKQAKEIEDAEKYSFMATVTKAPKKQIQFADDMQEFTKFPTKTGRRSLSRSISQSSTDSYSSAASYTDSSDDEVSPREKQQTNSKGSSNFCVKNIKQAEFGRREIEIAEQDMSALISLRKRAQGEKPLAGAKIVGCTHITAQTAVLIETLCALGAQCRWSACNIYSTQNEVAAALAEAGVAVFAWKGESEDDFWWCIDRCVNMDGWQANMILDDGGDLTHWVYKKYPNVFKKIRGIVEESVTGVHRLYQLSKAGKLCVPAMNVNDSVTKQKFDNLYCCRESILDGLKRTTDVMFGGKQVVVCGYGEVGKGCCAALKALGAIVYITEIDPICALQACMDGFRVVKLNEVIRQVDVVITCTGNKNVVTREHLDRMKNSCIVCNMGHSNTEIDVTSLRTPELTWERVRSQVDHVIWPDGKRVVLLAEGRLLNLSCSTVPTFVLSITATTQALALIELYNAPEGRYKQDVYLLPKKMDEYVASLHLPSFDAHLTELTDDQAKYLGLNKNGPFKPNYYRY
UniProt O43318: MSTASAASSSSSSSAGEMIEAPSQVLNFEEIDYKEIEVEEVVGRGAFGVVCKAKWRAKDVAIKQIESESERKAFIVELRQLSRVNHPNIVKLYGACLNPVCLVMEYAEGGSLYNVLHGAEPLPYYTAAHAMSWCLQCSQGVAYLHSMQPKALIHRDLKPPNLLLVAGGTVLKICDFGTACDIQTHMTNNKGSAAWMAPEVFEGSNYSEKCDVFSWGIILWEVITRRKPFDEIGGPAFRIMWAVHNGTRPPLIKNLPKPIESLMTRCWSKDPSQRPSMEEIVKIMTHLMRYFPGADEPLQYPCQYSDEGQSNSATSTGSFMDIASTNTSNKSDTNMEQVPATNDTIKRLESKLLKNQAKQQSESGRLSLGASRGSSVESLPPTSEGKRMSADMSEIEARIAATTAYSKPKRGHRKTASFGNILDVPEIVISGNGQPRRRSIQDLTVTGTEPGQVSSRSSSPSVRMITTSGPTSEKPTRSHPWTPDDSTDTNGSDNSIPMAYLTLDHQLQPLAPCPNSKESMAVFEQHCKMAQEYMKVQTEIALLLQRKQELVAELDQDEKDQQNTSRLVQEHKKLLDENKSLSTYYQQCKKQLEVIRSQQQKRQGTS
UniProt O14929: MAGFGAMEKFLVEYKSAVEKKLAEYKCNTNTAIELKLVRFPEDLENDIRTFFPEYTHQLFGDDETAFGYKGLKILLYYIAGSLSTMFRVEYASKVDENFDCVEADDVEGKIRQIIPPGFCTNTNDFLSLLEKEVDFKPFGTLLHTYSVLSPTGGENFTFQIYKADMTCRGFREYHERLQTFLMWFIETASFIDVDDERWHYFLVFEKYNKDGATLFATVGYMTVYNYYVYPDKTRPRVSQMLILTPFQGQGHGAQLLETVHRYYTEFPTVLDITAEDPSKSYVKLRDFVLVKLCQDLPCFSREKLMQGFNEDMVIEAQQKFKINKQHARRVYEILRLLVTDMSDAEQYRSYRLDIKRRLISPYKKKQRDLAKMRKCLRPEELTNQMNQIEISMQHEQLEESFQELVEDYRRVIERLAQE
UniProt O15067: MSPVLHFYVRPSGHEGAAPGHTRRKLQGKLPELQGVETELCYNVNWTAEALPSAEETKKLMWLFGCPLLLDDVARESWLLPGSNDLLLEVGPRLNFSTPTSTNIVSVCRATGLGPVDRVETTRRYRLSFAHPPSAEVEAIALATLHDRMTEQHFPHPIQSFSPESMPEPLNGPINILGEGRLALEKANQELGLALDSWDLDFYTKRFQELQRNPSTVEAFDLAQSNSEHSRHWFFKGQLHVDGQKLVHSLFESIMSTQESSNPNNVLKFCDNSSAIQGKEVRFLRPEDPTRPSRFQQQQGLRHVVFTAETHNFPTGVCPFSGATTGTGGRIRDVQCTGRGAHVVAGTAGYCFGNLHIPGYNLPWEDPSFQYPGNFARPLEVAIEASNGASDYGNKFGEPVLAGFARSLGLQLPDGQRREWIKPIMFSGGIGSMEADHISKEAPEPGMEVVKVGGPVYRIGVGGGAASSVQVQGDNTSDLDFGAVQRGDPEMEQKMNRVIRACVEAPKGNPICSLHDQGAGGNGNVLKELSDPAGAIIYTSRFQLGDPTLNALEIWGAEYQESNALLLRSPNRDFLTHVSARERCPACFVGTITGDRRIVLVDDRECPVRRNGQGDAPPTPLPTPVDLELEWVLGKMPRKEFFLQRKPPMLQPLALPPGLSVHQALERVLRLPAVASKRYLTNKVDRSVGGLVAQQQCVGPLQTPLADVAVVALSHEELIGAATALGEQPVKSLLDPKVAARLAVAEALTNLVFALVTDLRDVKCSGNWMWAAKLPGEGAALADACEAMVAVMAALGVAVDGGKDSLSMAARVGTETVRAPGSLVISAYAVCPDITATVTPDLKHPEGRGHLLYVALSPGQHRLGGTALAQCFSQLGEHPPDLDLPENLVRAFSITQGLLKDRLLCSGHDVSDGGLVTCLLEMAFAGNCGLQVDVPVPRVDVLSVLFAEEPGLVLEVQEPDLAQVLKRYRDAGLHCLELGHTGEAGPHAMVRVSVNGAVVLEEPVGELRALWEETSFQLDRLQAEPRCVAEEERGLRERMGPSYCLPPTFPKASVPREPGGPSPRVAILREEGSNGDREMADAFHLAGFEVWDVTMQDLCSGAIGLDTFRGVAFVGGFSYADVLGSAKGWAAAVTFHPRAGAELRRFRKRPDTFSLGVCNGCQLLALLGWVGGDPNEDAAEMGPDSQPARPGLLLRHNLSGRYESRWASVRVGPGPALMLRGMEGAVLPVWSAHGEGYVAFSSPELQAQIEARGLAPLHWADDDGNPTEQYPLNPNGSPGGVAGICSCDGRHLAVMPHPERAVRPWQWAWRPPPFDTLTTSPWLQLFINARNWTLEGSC
UniProt O60884: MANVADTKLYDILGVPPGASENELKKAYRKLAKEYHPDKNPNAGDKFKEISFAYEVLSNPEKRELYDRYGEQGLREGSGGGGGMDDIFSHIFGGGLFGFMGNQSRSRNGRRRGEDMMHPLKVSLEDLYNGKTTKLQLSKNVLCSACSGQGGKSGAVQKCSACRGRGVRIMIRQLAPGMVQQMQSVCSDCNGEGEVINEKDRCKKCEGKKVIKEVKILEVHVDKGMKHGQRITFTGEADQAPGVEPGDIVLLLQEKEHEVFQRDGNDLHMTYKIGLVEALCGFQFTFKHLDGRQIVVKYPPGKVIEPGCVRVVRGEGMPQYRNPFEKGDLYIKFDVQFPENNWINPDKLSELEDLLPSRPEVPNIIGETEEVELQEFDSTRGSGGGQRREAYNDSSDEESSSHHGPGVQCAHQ
UniProt O00139: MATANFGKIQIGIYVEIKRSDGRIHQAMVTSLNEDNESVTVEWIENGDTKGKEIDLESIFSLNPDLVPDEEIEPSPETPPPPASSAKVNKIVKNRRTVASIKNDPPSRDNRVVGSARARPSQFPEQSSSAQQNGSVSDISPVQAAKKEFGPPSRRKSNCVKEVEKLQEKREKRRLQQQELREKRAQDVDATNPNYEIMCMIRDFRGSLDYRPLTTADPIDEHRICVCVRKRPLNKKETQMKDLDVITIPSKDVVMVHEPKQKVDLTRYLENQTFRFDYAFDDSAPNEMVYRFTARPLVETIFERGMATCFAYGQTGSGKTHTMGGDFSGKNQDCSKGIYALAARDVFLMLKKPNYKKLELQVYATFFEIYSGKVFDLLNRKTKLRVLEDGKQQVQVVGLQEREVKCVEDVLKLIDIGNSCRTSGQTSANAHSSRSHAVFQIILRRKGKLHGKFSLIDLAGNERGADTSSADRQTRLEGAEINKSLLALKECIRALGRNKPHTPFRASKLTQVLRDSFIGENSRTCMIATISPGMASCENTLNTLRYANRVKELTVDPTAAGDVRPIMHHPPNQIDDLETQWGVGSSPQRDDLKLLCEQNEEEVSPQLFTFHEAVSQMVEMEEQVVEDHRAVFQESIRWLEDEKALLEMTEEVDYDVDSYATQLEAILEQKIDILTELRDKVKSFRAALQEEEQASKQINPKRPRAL

Compound: Nc1nc2c(ncn2[C@@H]2O[C@H](COP(=O)(O)OP(=O)(O)OP(=O)(O)O)[C@@H](O)[C@H]2O)c(=O)[nH]1 [guanosine triphosphate]
Test: NP40-soluble protein abundance relative to vehicle (solubility fold change) (ratio); higher = more soluble protein in presence of GTP
Method in brief: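 Eight concentrations, 0.1 to 10 mM, were tested on Jurkat crude lysate for 10 min at room temperature and then 3 min at 37 °C, in three independent experiments. The lysate was solubilised with 0.8% NP40 and benzonase, ultracentrifuged, and the supernatant TMT-labelled for LC-MS/MS. Each value is the fold change against the detergent-processed vehicle in its own replicate, from vsn-normalised intensities.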

| Target | NP40-soluble protein abundance (concentration: 0.1mM) | NP40-soluble protein abundance (concentration: 0.5mM) | NP40-soluble protein abundance (concentration: 1mM) | NP40-soluble protein abundance (concentration: 2mM) | NP40-soluble protein abundance (concentration: 4mM) | NP40-soluble protein abundance (concentration: 6mM) | NP40-soluble protein abundance (concentration: 8mM) | NP40-soluble protein abundance (concentration: 10mM) |
| --- | --- | --- | --- | --- | --- | --- | --- | --- |
| TOR1A (UniProt O14656) | 1 ± 0.052 | 1.03 ± 0.075 | 0.93 ± 0.063 | 0.946 ± 0.031 | 0.876 ± 0.018 | 0.903 ± 0.03 | 0.851 ± 0.024 | 0.863 ± 0.022 |
| UniProt O60488 and related entries | 1.02 ± 0.028 | 1.08 ± 0.053 | 0.9363 ± 0.0046 | 0.939 ± 0.066 | 0.908 ± 0.045 | 0.905 ± 0.049 | 0.894 ± 0.039 | 0.843 ± 0.086 |
| RNF13 (UniProt O43567) | 0.97 ± 0.08 | 0.958 ± 0.07 | 1.03 ± 0.056 | 0.999 ± 0.094 | 0.964 ± 0.096 | 1.04 ± 0.076 | 1 ± 0.093 | 0.99 ± 0.065 |
| M0R2A0 and related entries (UniProt Q5UCC4) | 0.98 ± 0.025 | 1.03 ± 0.068 | 0.991 ± 0.083 | 1.03 ± 0.038 | 0.94 ± 0.054 | 1.01 ± 0.1 | 0.953 ± 0.055 | 1 ± 0.088 |
| M0R3D4 and related entries (UniProt Q9UI14) | 1.05 ± 0.14 | 0.97 ± 0.0098 | 0.949 ± 0.049 | 0.858 ± 0.08 | 0.88225 ± 0.0001 | 0.847 ± 0.0022 | 0.871 ± 0.027 | 0.846 ± 0.013 |
| UniProt O43504 | 0.878 ± 0.085 | 0.902 ± 0.07 | 1 ± 0.12 | 0.969 ± 0.057 | 1.02 ± 0.16 | 0.906 ± 0.12 | 0.933 ± 0.046 | 0.991 ± 0.12 |
| PSMD3 (UniProt O43242) | 1.06 ± 0.076 | 1.09 ± 0.14 | 1.02 ± 0.11 | 1.11 ± 0.2 | 1.09 ± 0.18 | 1.09 ± 0.18 | 1.07 ± 0.15 | 1.03 ± 0.16 |
| MAN1A2 (UniProt O60476) | 1.06 ± 0.098 | 1.08 ± 0.04 | 0.955 ± 0.015 | 1.01 ± 0.094 | 0.952 ± 0.045 | 0.969 ± 0.041 | 0.92 ± 0.022 | 0.947 ± 0.031 |
| UniProt O00267 and related entries | 1.02 ± 0.035 | 1.04 ± 0.054 | 0.974 ± 0.023 | 0.991 ± 0.04 | 0.969 ± 0.036 | 0.967 ± 0.058 | 0.945 ± 0.035 | 0.941 ± 0.019 |
| UniProt O43865 | 0.969 ± 0.025 | 0.99 ± 0.044 | 0.959 ± 0.057 | 0.944 ± 0.025 | 0.914 ± 0.021 | 0.955 ± 0.029 | 0.973 ± 0.056 | 0.98 ± 0.047 |
| UniProt O43318 and related entries | 1.07 ± 0.14 | 1.02 ± 0.092 | 0.97 ± 0.057 | 0.988 ± 0.1 | 0.977 ± 0.052 | 0.971 ± 0.076 | 1.04 ± 0.05 | 0.968 ± 0.064 |
| HAT1 (UniProt O14929) | 1.05 ± 0.057 | 1.03 ± 0.051 | 0.942 ± 0.017 | 0.948 ± 0.081 | 0.939 ± 0.05 | 0.914 ± 0.055 | 0.893 ± 0.051 | 0.869 ± 0.1 |
| PFAS (UniProt O15067) | 1.03 ± 0.022 | 1.01 ± 0.031 | 0.984 ± 0.022 | 0.946 ± 0.026 | 0.943 ± 0.027 | 0.922 ± 0.026 | 0.927 ± 0.012 | 0.891 ± 0.041 |
| UniProt O43684 and related entries | 1.013 ± 0.005 | 1.05 ± 0.046 | 1 ± 0.029 | 0.981 ± 0.03 | 0.993 ± 0.018 | 1.01 ± 0.032 | 1.02 ± 0.051 | 0.978 ± 0.033 |
| UniProt O14686 and related entries | 0.996 ± 0.037 | 1.02 ± 0.062 | 1.06 ± 0.024 | 1.04 ± 0.065 | 1.06 ± 0.064 | 1.07 ± 0.043 | 1.14 ± 0.078 | 1.1 ± 0.087 |
| DNAJA2 (UniProt O60884) | 0.969 ± 0.024 | 0.996 ± 0.028 | 1 ± 0.038 | 0.992 ± 0.015 | 1.01 ± 0.031 | 1.04 ± 0.038 | 1.04 ± 0.062 | 1.01 ± 0.041 |
| UGDH (UniProt O60701) | 0.967 ± 0.063 | 0.994 ± 0.059 | 0.932 ± 0.047 | 0.939 ± 0.036 | 0.929 ± 0.035 | 0.938 ± 0.044 | 0.911 ± 0.055 | 0.936 ± 0.062 |
| UniProt O00139 and related entries | 0.996 ± 0.017 | 0.972 ± 0.025 | 0.908 ± 0.032 | 0.924 ± 0.019 | 0.929 ± 0.03 | 0.942 ± 0.031 | 0.966 ± 0.018 | 0.944 ± 0.043 |

Part of the list above, reformatted:
Target,NP40-soluble protein abundance (concentration: 0.1mM),NP40-soluble protein abundance (concentration: 0.5mM),NP40-soluble protein abundance (concentration: 1mM),NP40-soluble protein abundance (concentration: 2mM),NP40-soluble protein abundance (concentration: 4mM),NP40-soluble protein abundance (concentration: 6mM),NP40-soluble protein abundance (concentration: 8mM),NP40-soluble protein abundance (concentration: 10mM)
MAN1A2 (UniProt O60476),1.06 ± 0.098,1.08 ± 0.04,0.955 ± 0.015,1.01 ± 0.094,0.952 ± 0.045,0.969 ± 0.041,0.92 ± 0.022,0.947 ± 0.031
UniProt O43318 and related entries,1.07 ± 0.14,1.02 ± 0.092,0.97 ± 0.057,0.988 ± 0.1,0.977 ± 0.052,0.971 ± 0.076,1.04 ± 0.05,0.968 ± 0.064
